# Values joined by “and” are separate entries in the source; they are usually repeats but may differ in a detail not shown here. Identical values can stand only once. The campaign covered roughly 220,000 compounds. About 2,400 (1.1%) were called active. The inconclusive results got no clear call from the source; some entries with a clear call stand among them for comparison. The call rests on the fitted dose curve; in most records, active means well fitted inhibition curve with a large enough effect; inconclusive means small, poorly fitted or top-dose-only effect, or effect the other way; inactive means no such curve, though single readings can be large or run the other way. Where the call is inconclusive, the potency comes from a doubtful curve fit.
# Assay: qHTS Multiplex Assay to Identify Dual Action Probes in a Cell Model of Huntington: Aggregate Formation (GFP); further: nearly all actives have a fitted effect of over 60% in size
# Conditions: PC12 HttQ103-GFP aggregates, Acumen cytometry, 40 h; activity change, negative = inhibition: at 46.1 µM (top of the series) unless noted
# How it was run: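 Ecdysone-promoter PC12 model expressing HTT exon 1 Q103 fused to GFP, induced by tebufenozide at 100 nM final. Compounds titrated; aggregates sized 1–25 µm scored on a 488 nm laser cytometer.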
# On the % scale 0 is the no-effect control and ±100 the full control effect; potency means the concentration at half of the fitted maximal effect.
Structure (SMILES),Potency,"activity change, negative = inhibition"
CSc1ccc(S(=O)(=O)Nc2ccc(N3CCOCC3)c(Cl)c2)cc1,"inconclusive: 20 µM [inhibitor, single point]",–
CCSc1nnc(NC(=O)C2CC2c2ccccc2)s1 (centres undefined),"inconclusive: 35.5 µM [inhibitor, single point]",–
Oc1c(I)cc(I)c2cccnc12,"inconclusive: 11.2 µM [inhibitor, full curve, poor fit] and inconclusive: 35.5 µM [inhibitor, single point]",–
O=c1[nH]c(=O)n(Cc2ccccc2)c2c1C(C(F)(F)F)(C(F)(F)F)N=C(c1ccco1)N2,"inconclusive: 10 µM [inhibitor, single point]",–
CCOC(=O)C1CCN(c2c(C(=O)c3ccccc3)cnc3ccc(Cl)cc23)CC1,"inconclusive: 2.82 µM [activator, partial curve]",–
COc1ccc(C2CC(c3ccccc3)Nc3ncnn32)cc1 (centres undefined),"inconclusive: 0.501 µM [activator, full curve, poor fit]",–
O=S(=O)(NCCc1cn2ccccc2n1)c1cccs1,"inconclusive: 5.62 µM [inhibitor, single point]",–
Cc1cc2oc3c(c(=O)c2cc1C)C(c1ccc(F)cc1)N(CCCN1CCOCC1)C3=O (centres undefined),"inconclusive: 0.562 µM [inhibitor, full curve, poor fit]",–
CCC(=O)c1cc(F)c(N2CCN(S(=O)(=O)c3ccccc3)CC2)cc1C,"inconclusive: 11.2 µM [inhibitor, single point]",–
CCC(C)(C)n1nnnc1CN(Cc1cc2cc(OC)ccc2[nH]c1=O)C1CCCC1,"inconclusive: 5.62 µM [activator, single point]",–
O=C(/C(N=Nc1cccc([N+](=O)[O-])c1)=C(/O)c1ccc(Br)cc1)C(F)(F)F,"inconclusive: 0.891 µM [inhibitor, partial curve]",–
CCCC(=O)Nc1nc2ccc(S(=O)(=O)N3CCCCC3)cc2s1,"inconclusive: 3.98 µM [inhibitor, partial curve]",–
Clc1ccc(OCc2nn3c(-c4ccco4)nnc3s2)c(Cl)c1,inactive,–
COc1cc([N+](=O)[O-])cc(/C=N/NC(=O)C(C)Nc2cccc3ccccc23)c1O (centres undefined),active: 12.6 µM,–
O=C(C1=C(O)C(=O)N(c2ncccn2)C1c1ccc(Cl)c(Cl)c1)c1ccco1 (centres undefined),inactive,–
CCOC(=O)CSc1nnc(-c2ccccc2NC(=O)c2ccccc2)o1,inactive,–
CC(C)C1N(c2ccccc2)C(N)=C(C#N)C1(C#N)C#N (centres undefined),"inconclusive: 11.2 µM [inhibitor, partial curve, poor fit]",–
CCOc1cccc(C2C(C(=O)c3ccco3)=C(O)C(=O)N2Cc2ccncc2)c1 (centres undefined),"inconclusive: 0.794 µM [activator, single point]",–
O=c1cc(CN2CCN(S(=O)(=O)c3ccc4c(c3)OCCO4)CC2)c2ccc(O)cc2o1,inactive,–
Cc1cc(C)c(C)c(S(=O)(=O)Nc2ccc(O)cc2)c1C,"inconclusive: 7.94 µM [activator, partial curve]",–
O=C(/C=C\Nc1ccc2c(c1)OCO2)c1ccc(Cl)s1,"inconclusive: 3.16 µM [activator, partial curve]",–
Nn1c(C2COc3ccccc3O2)n[nH]c1=S (centres undefined),–,inactive: -19.9% [at 9.22 µM]
COc1cc2c(cc1OC)C1=C(C#N)CN(C3CCCCC3)CN1CC2,inactive,–

Structure (SMILES),Potency,"activity change, negative = inhibition"
CCc1ccc2c(c1)c1nnc(NN)nc1n2CC,inactive,–
COCCn1c(C)cc(C(=O)CSc2ncnc3sc4c(c23)CCC4)c1C,active: 6.31 µM,–
COc1cccc(C(=O)NCC(=O)OCC(=O)c2ccccc2)c1,inactive,–
COc1cc2oc(-c3ccc(O)cc3)cc(=O)c2c(OC)c1O,–,inactive: -19.3% [at 9.22 µM]
CCCCCc1ccc(OCCCC[n+]2ccc(C)cc2)c(CCCCC)c1,"inconclusive: 2.82 µM [inhibitor, single point]",–
O=C(Nc1ccccc1)Nc1ccccc1Br,"inconclusive: 7.94 µM [inhibitor, partial curve]",–
CCN(CC)C(=O)c1ccc(COc2ccccc2Br)o1,"inconclusive: 11.2 µM [inhibitor, partial curve]",–
O=C(NC1CCCCC1)C(c1ccccc1F)N(Cc1ccco1)C(=O)Cn1nnc2ccccc21 (centres undefined),"inconclusive: 3.98 µM [inhibitor, single point]",–
COC(CNC(=O)c1ccc(Cn2c(=S)[nH]c3cc4c(cc3c2=O)OCO4)cc1)OC,inactive,–
O=C(Cn1c(=O)n(Cc2ccco2)c(=O)c2c3c(sc21)CCCCC3)Nc1ccccc1,"inconclusive: 11.2 µM [activator, partial curve]",–
Cn1c(=O)c2c(nc(NC3CCCCC3)n2CC(O)COc2ccccc2)n(C)c1=O (centres undefined),"inconclusive: 6.31 µM [inhibitor, partial curve]",–
CC1(C)CC(=O)C2=C(C1)OC(N)=C(C#N)C2c1ccccc1 (centres undefined),inactive,–
Cc1onc(-c2ccccc2)c1C(=O)NC(=S)NNC(=O)c1ccc(O)cc1O,"inconclusive: 3.55 µM [inhibitor, full curve]",–
CC1CN(Cc2ccccc2)c2ccccc2NC1=S (centres undefined),inactive,–
CC(=O)N(CCC(Cc1ccccc1)c1ccc2c(c1)OCO2)Cc1ccc(Cl)cc1 (centres undefined),"inconclusive: 14.1 µM [inhibitor, single point]",–
CC(NC(=S)Nc1c(Br)cccc1OC(F)F)C(C)(C)C (centres undefined),"inconclusive: 31.6 µM [activator, single point]",–
Cn1c(=S)[nH]c2c(c1=O)C(C)(C)Cc1ccccc1-2,inactive,–
O=C(CN1CCN(c2ccc(O)cc2)CC1)Nc1cc(S(=O)(=O)N2CCCCC2)ccc1Cl,"inconclusive: 35.5 µM [inhibitor, single point]",–
CCN(CC)CCCNC(=O)c1ccc(OCC(=O)Nc2ccccc2C(F)(F)F)c(OC)c1,"inconclusive: 35.5 µM [inhibitor, single point]",–
Cc1ccc(CC(=O)Nc2nc3c(s2)CCCC3)cc1,inactive,–
S=c1[nH]nc(C2CCCCC2)n1/N=C/c1ccncc1,active: 0.224 µM,–
CCOC(=O)c1ccc(N2C(=O)CC(C)(CC)CC2=O)cc1,–,inactive: -12.8% [at 9.22 µM]
COc1ccc(-c2noc(C3CCCN(C(=O)CCc4ccccc4)C3)n2)cc1 (centres undefined),"inconclusive: 35.5 µM [inhibitor, single point]",–

Structure (SMILES),Potency,"activity change, negative = inhibition"
CC(C)(C)c1ccc(O)c(N=Cc2cc(Br)ccc2O)c1,–,inactive: 4.29% [at 9.22 µM]
CCOC(=O)C1CCN(Cc2cc(C(C)(C)C)c(O)c(C(C)(C)C)c2)CC1,"inconclusive: 1 µM [activator, full curve, poor fit]",–
CC(=O)c1ccc(NC(=O)c2ccc(CSc3ccccc3)o2)cc1,"inconclusive: 15.8 µM [inhibitor, single point]",–
CCOC(=O)c1sc(NC(=O)c2c(C)nn(Cc3ccccc3)c2C)cc1C,"inconclusive: 35.5 µM [inhibitor, single point]",–
O=C(NC(Cc1c[nH]c2ccccc12)C(=O)N/N=C/c1ccc(Br)cc1)c1cccs1 (centres undefined),"inconclusive: 17.8 µM [inhibitor, single point]",–
CCOc1cc(S(=O)(=O)N2CCCC2)c(C)cc1C,–,inactive: -8.33% [at 9.22 µM]
CC(=O)c1cc(NC(=O)c2cccc(C(F)(F)F)c2)c(=O)oc1/C=C/N(C)C,inactive,–
C/C(=C\C(=O)c1ccc(Br)cc1)NCc1ccc2c(c1)OCO2,"inconclusive: 14.1 µM [inhibitor, single point]",–
COc1cc(CNCc2ccccn2)ccc1OCc1c(Cl)cccc1Cl,"inconclusive: 11.2 µM [inhibitor, single point]",–
Cc1ccc(OCC(=O)c2ccc3c(c2)CCCC3)cc1C,"inconclusive: 20 µM [inhibitor, single point]",–
COC(CNC(=O)C1CCCN(S(=O)(=O)c2c(C)noc2/C=C/c2cccs2)C1)OC (centres undefined),"inconclusive: 20 µM [inhibitor, single point]",–
Cc1ccc(NC(=O)CN2C(=O)S/C(=C\c3cc(C)n(-c4ccc(C(=O)O)cc4)c3C)C2=O)cc1,"inconclusive: 0.562 µM [activator, full curve, poor fit]",–
Cc1cc(C)n(-c2ccc(C(=O)Nc3cccc(S(=O)(=O)N4CCCC4)c3)cc2)n1,"inconclusive: 12.6 µM [inhibitor, partial curve]",–
COc1ccccc1/C=C/C1(C(=O)NC2CCCC2)CC(=O)N1c1ccc(C)cc1 (centres undefined),"inconclusive: 17.8 µM [inhibitor, partial curve, poor fit]",–
CC(C)C1NC(=S)N(Cc2ccccc2)C1=O (centres undefined),inactive,–
O=C(COc1ccc(/C=N/NC(=O)c2cc3ccccc3o2)cc1Cl)Nc1ccccc1,inactive,–
COc1ccc(N=N/C(=C\O)C(=O)c2ccco2)cc1,inactive,–
Cc1ccccc1NC(=S)NC(NC(=O)COc1ccccc1)C(Cl)(Cl)Cl (centres undefined),"inconclusive: 10 µM [activator, partial curve]",–
COCCNc1nc(C)cc(-c2cc(C(=O)NCc3ccccc3)on2)n1,"inconclusive: 0.891 µM [activator, partial curve]",–
Cc1cc(N2CCN(c3ccccc3Cl)CC2)n2cc(-c3ccccc3)nc2n1,"inconclusive: 25.1 µM [inhibitor, single point]",–
Cc1ccc(OC(C)c2nnc(N)s2)cc1Cl (centres undefined),inactive,–
CC(C)c1ccc(S(=O)(=O)N2CCCCC2)cc1,inactive,–
CCOC(=O)c1ccc(NC(=O)C2CCN(C(=O)c3ccc(OC)c(OC)c3)CC2)cc1,"inconclusive: 3.98 µM [activator, single point]",–
